Data as given in PubChem BioAssay AID1259405 (NCATS, 2018)
Screen: 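Knock-downs that lift recombinant protein yield in hamster ovary cells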 (primary screen). Cells: Chinese hamster CHO-K1 ovary cells with stable secreted eGFP expression. Knock-down reagent: single siRNA against mouse genes, 0.8 pmol siRNA per well (2 µl of 400 nM stock). Timing: 3 days. Detection: 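Percent of the per-plate non-targeting control median for intracellular GFP per well by laser scanning cytometry and for cell viability by ATP luminescence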. Scale: GFP, % of control: higher = more GFP per well, higher productivity; viability (ATP), % of control: higher = more viable cells (more ATP). Hit rule: 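Called active when intracellular GFP, relative to negative control, is at or above 120%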.
Shown is a random part of about 50,000 reagents. About 4,000 of them (8%) were called active. 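Mouse siRNA library applied to hamster cells; one well for each siRNA.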 Reagents against one gene are numbered here.

{"target": "Dmgdh", "reagent no.": 1, "GFP, % of control": 70.5, "viability (ATP), % of control": 77.9, "Call": "inactive"}
{"target": "Dmgdh", "reagent no.": 2, "GFP, % of control": 83.9, "viability (ATP), % of control": 75.8, "Call": "inactive"}
{"target": "Dmgdh", "reagent no.": 3, "GFP, % of control": 77.7, "viability (ATP), % of control": 86.6, "Call": "inactive"}
{"target": "Actr1b", "reagent no.": 1, "GFP, % of control": 108, "viability (ATP), % of control": 83.6, "Call": "inactive"}
{"target": "Actr1b", "reagent no.": 2, "GFP, % of control": 71.6, "viability (ATP), % of control": 87.3, "Call": "inactive"}
{"target": "Olfml3", "reagent no.": 1, "GFP, % of control": 53.3, "viability (ATP), % of control": 34.2, "Call": "inactive"}
{"target": "Olfml3", "reagent no.": 2, "GFP, % of control": 78.3, "viability (ATP), % of control": 92.6, "Call": "inactive"}
{"target": "Olfml3", "reagent no.": 3, "GFP, % of control": 111, "viability (ATP), % of control": 90.6, "Call": "inactive"}
{"target": "Ppara", "reagent no.": 1, "GFP, % of control": 103, "viability (ATP), % of control": 74.5, "Call": "inactive"}
{"target": "Ppara", "reagent no.": 2, "GFP, % of control": 81, "viability (ATP), % of control": 99.9, "Call": "inactive"}
{"target": "Ppara", "reagent no.": 3, "GFP, % of control": 79.9, "viability (ATP), % of control": 82.2, "Call": "inactive"}
{"target": "Tmem120a", "reagent no.": 1, "GFP, % of control": 183, "viability (ATP), % of control": 50.5, "Call": "active"}
{"target": "Tmem120a", "reagent no.": 2, "GFP, % of control": 86.5, "viability (ATP), % of control": 114, "Call": "inactive"}
{"target": "Tmem120a", "reagent no.": 3, "GFP, % of control": 104, "viability (ATP), % of control": 118, "Call": "inactive"}
{"target": "Mettl23", "reagent no.": 1, "GFP, % of control": 68.8, "viability (ATP), % of control": 61.9, "Call": "inactive"}
{"target": "Mettl23", "reagent no.": 2, "GFP, % of control": 87.5, "viability (ATP), % of control": 73.8, "Call": "inactive"}
{"target": "Mettl23", "reagent no.": 3, "GFP, % of control": 107, "viability (ATP), % of control": 53.2, "Call": "inactive"}

Records listed so far called active:
{"target": "Tmem120a", "reagent no.": 1, "GFP, % of control": 183, "viability (ATP), % of control": 50.5, "Call": "active"}
